{"sequences": {"note": "Sequences of proteins named here, by UniProt entry; tags and fusion partners are left off.", "UniProt Q0JBA9, entry or part of it": "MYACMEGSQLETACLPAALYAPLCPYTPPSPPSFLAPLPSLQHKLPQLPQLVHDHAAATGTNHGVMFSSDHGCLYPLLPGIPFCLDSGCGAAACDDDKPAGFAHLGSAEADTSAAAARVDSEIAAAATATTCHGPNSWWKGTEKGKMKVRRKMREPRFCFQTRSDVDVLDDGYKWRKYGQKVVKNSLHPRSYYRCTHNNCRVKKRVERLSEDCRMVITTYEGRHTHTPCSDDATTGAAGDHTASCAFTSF"}, "source": "paper PMC7819943", "about": "“Rice protein-binding microarrays: a tool to detect cis-acting elements near promoter regions in rice”", "note": "The list shows a part of the results.", "data": [{"target": "OsWRKY34 (Oryza sativa, UniProt Q0JBA9 1-250)", "assay": "protein-binding microarray (RPBM); PBS, 2% BSA, 51.3 ng/ul salmon testes DNA, 50 uM zinc acetate, 200 nM TF, 25 C, 1 h; high values mean tight binding", "conditions": "protein: recombinant; tags: N-terminal polyhistidine and DsRed monomer fusion (pET32a); label: CyDye5-dUTP incorporated in the synthesized complementary strand; 3' TTTTT single-stranded linker to array surface; dsDNA, one strand shown", "how_it_was_run": "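Per-feature fluorescence intensity (arbitrary units), read on an Axon 4000B scanner, is the binding signal. Transcription factors carrying an N-terminal polyhistidine tag and DsRed fusion were expressed in E. coli BL21-CodonPlus and purified on Ni–NTA. A custom Agilent array, made double-stranded by primer extension with Cy5-dUTP and blocked with 2% BSA, was incubated with 200 nM protein in PBS, 2% BSA, salmon testes DNA and 50 µM zinc acetate at 25 °C for 1 h and then washed.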", "values": [{"sequence": "TTGGGTTGATATGTTGCTGAATGGTCATTTTCTGGGTTAACGGAGTCACCTAGTGCAG", "binding signal": "11200 fluorescence intensity (a.u.)"}, {"sequence": "ATTTGTTCATCTGGTTGCGACGCGTTCCTTAACTCTTTTTCGGAGTCACCTAGTGCAG", "binding signal": "9120 fluorescence intensity (a.u.)"}, {"sequence": "GTGCGATTTGTTTGTCCCTTTTGTCCGCGGATTTCCCGGGCGGAGTCACCTAGTGCAG", "binding signal": "9300 fluorescence intensity (a.u.)"}, {"sequence": "CTCTCTTGTGCTTACTACTTATAAGTTTTAACTGAATGGACGGAGTCACCTAGTGCAG", "binding signal": "8560 fluorescence intensity (a.u.)"}, {"sequence": "AAAGATCGCTTTTTCCGTGGTAGGCTTCTCCATTTTATTTCGGAGTCACCTAGTGCAG", "binding signal": "10700 fluorescence intensity (a.u.)"}, {"sequence": "GGAGTAGTATTTCTGAAGTTTACGGGGCGGCTGATGCTTCCGGAGTCACCTAGTGCAG", "binding signal": "13900 fluorescence intensity (a.u.)"}, {"sequence": "GATACATTGCACATTATACTTCATATATAGTATTATAATTCGGAGTCACCTAGTGCAG", "binding signal": "8610 fluorescence intensity (a.u.)"}, {"sequence": "TCCTTTTTCTTTTTTCTCTTGCCACATTGACATTTTATCGCGGAGTCACCTAGTGCAG", "binding signal": "10400 fluorescence intensity (a.u.)"}, {"sequence": "ACTAAATTGTTGCCCATTTATCCTAGCTATATAGTAGCTACGGAGTCACCTAGTGCAG", "binding signal": "8480 fluorescence intensity (a.u.)"}, {"sequence": "CTGTTGTTCTGTATATTGTGGTGGGTGTTGATTTGCGGGTCGGAGTCACCTAGTGCAG", "binding signal": "12800 fluorescence intensity (a.u.)"}, {"sequence": "CACATGTCATTGTCACACACACGCGCGCCCCATTGGACATCGGAGTCACCTAGTGCAG", "binding signal": "9860 fluorescence intensity (a.u.)"}, {"sequence": "CTCCACCACTAATTCCTTCTTGCCACATGTGGTCGCTGATCGGAGTCACCTAGTGCAG", "binding signal": "11000 fluorescence intensity (a.u.)"}, {"sequence": "GGTGGTGGTGGTGTGCGCGGCTGAGCCGGACGCGGACAGGCGGAGTCACCTAGTGCAG", "binding signal": "11300 fluorescence intensity (a.u.)"}, {"sequence": "ATTTATCTTTTTATTCTATTTATGGAATCGTCCAACCAAACGGAGTCACCTAGTGCAG", "binding signal": "9130 fluorescence intensity (a.u.)"}, {"sequence": "CGGTCGCTCGTCTCCGTCTCCGTCTCCGCCACCGCCACCGCGGAGTCACCTAGTGCAG", "binding signal": "11800 fluorescence intensity (a.u.)"}, {"sequence": "TGCACCTCCTCCTTGGCCATGGTATGTCTCTCCCCTATCTCGGAGTCACCTAGTGCAG", "binding signal": "9170 fluorescence intensity (a.u.)"}, {"sequence": "TTGACCTGTTGACTTAGGGTTAGATTATATATGTCTGTTACGGAGTCACCTAGTGCAG", "binding signal": "8250 fluorescence intensity (a.u.)"}, {"sequence": "GATGGTTGGGTCTCATATGCAATGTTTCTTTGATTTTTGTCGGAGTCACCTAGTGCAG", "binding signal": "8470 fluorescence intensity (a.u.)"}, {"sequence": "TCCCACACGCCATGACGCCAACCAACCCAAGCACAGCAGTCGGAGTCACCTAGTGCAG", "binding signal": "9360 fluorescence intensity (a.u.)"}, {"sequence": "CAGCAGCGGCGGCGGCGGCGGCGGCGGGGTGGTGGAACCTCGGAGTCACCTAGTGCAG", "binding signal": "9080 fluorescence intensity (a.u.)"}, {"sequence": "TGTGTTGTTGCTTTTACCATCGCCTTCCCCACCACCTTCTCGGAGTCACCTAGTGCAG", "binding signal": "8650 fluorescence intensity (a.u.)"}, {"sequence": "TTAATGTATGACGCTGTTCACTTTTCATCTAACGCTTAACCGGAGTCACCTAGTGCAG", "binding signal": "9070 fluorescence intensity (a.u.)"}, {"sequence": "TTAGCTCATCCTTCCATGCACCACACCTGCTCGACCACATCGGAGTCACCTAGTGCAG", "binding signal": "9700 fluorescence intensity (a.u.)"}, {"sequence": "ATTTTAAACGGTTTTGATAGTTAGAGGGGTCGATTTATCTCGGAGTCACCTAGTGCAG", "binding signal": "8290 fluorescence intensity (a.u.)"}, {"sequence": "ATTTGACACCGTTAACCTTTTAGCACATGTTTGACCGTTCCGGAGTCACCTAGTGCAG", "binding signal": "11900 fluorescence intensity (a.u.)"}, {"sequence": "TATTTGATCCCGTTTTTTAAAATCGAGCTTACCGTTTGACCGGAGTCACCTAGTGCAG", "binding signal": "10500 fluorescence intensity (a.u.)"}, {"sequence": "AAACTATGCACTTTTTATCTGTTAACATAGCCTACACTGTCGGAGTCACCTAGTGCAG", "binding signal": "10600 fluorescence intensity (a.u.)"}, {"sequence": "CAATCCCATCAGTAATGTGTTTCACACCGTCGTATTTGCCCGGAGTCACCTAGTGCAG", "binding signal": "9840 fluorescence intensity (a.u.)"}, {"sequence": "GCGCTGTGGATTGGTTGTGTCTTTTCTTGTATATAAACGCCGGAGTCACCTAGTGCAG", "binding signal": "11400 fluorescence intensity (a.u.)"}, {"sequence": "TGCGAGCTAGCTCTGCTAGGTCGCCACCGTCGAGGCCCTCCGGAGTCACCTAGTGCAG", "binding signal": "8050 fluorescence intensity (a.u.)"}, {"sequence": "TCGCCTCATCTTTTATTTGCACCATGATACTGCCGGTATACGGAGTCACCTAGTGCAG", "binding signal": "10900 fluorescence intensity (a.u.)"}, {"sequence": "TCTACTATTTTAGGGTTTGGCAGGTTTAGATATTGATATTCGGAGTCACCTAGTGCAG", "binding signal": "11400 fluorescence intensity (a.u.)"}, {"sequence": "GGTTTGTTGTTTGGATATCATAGTTTTTGAATGAGGAGAACGGAGTCACCTAGTGCAG", "binding signal": "13800 fluorescence intensity (a.u.)"}, {"sequence": "TCTTCTCTGTTGCCGTAATGCAGAGGATCCATGCCTGTCACGGAGTCACCTAGTGCAG", "binding signal": "8400 fluorescence intensity (a.u.)"}, {"sequence": "CATCCGTATTTGAGTCAGTTTTAAAGTTTGTTCGCTTTTGCGGAGTCACCTAGTGCAG", "binding signal": "8420 fluorescence intensity (a.u.)"}, {"sequence": "TTGGCCGAGGTCCTAGTTACGGTTTTTCTCAGTCGCATTACGGAGTCACCTAGTGCAG", "binding signal": "11300 fluorescence intensity (a.u.)"}, {"sequence": "TTCTCCTTTTTTAGACTGGTTTCATATGTTTGTGGTATAACGGAGTCACCTAGTGCAG", "binding signal": "11200 fluorescence intensity (a.u.)"}, {"sequence": "TCACTGACCAAACTACCAAACTCATGCTCCTTAGTAGTTCCGGAGTCACCTAGTGCAG", "binding signal": "9010 fluorescence intensity (a.u.)"}, {"sequence": "GTGTGTTGGTTGTCACAGTACTGTGTGGTGGTGGTGGAAGCGGAGTCACCTAGTGCAG", "binding signal": "9220 fluorescence intensity (a.u.)"}, {"sequence": "CCCACCTGCTCCCAATCTCCATTCTCCTCATCACATATCCCGGAGTCACCTAGTGCAG", "binding signal": "10600 fluorescence intensity (a.u.)"}, {"sequence": "GTTTGCTTTTTTTTTCTTTTTTCTCTCTCATTGTTTTTTTCGGAGTCACCTAGTGCAG", "binding signal": "9930 fluorescence intensity (a.u.)"}, {"sequence": "TACTTACACACATCTCTGCGCTCCAATGCATCCCCTAACCCGGAGTCACCTAGTGCAG", "binding signal": "8820 fluorescence intensity (a.u.)"}]}]}
